In PubChem BioAssay AID1625 (Sanford-Burnham Center for Chemical Genomics, 2009) one finds cell count data, which are given here for 118 molecules.

The list shows a part of the results.

This test is described as follows: up-regulation of insulin promoter-GFP reporter – imaging, high-content screening, mouse beta cells (AID 1625).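 Also: total cells summed across four imaged fields per well.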 The settings on record: MIN6 insulin promoter-GFP reporter, measured here: cytotoxicity, nuclei count, at 5 µM.
In turn, `CN(C(=O)Cc1ccc(Cl)c(Cl)c1)[C@@H]1CCCC[C@H]1N1CCCC1` showed a cell count of 1460 cells.

Turning to `CC(C)/C=N\N=C(\N)N[N+](=O)[O-]`, the cell count is 1260 cells. Consider `O=[As](O)(c1ccccc1Br)c1ccccc1Br`, for which the cell count was found to be 1430 cells. `CC(C)(C)C(=O)NC(Sc1ncccn1)C(Cl)(Cl)Cl` (stereo not drawn) registered a cell count of 1360 cells. In the case of `Clc1n[nH]nc1-c1nn[nH][15n]1`, the cell count was determined as 1640 cells.

In turn, `O=[N+]([O-])c1cc([N+](=O)[O-])c(-n2nnc3ccccc32)c([N+](=O)[O-])c1` gave a cell count of 1420 cells. The figure for `O=P1(Nc2ccccn2)COc2ccccc2OC1` is 1210 cells; for `CCOP(=O)(Nc1ccc(C)cn1)OCC` it is 953 cells; for `CCCOc1ccc(NP(C)(=O)Oc2ccc(Cl)cc2)cc1` (stereo not drawn) it is 1490 cells. `CP(=O)(Nc1ccc(SC(F)(F)F)cc1)Oc1ccccc1` (stereo not drawn): the cell count came to 1450 cells. For `Nc1cccc([As](=O)(O)c2ccccc2)c1` the value was 1080 cells; for `O=[As](O)(c1cccs1)c1cccs1`, 963 cells; for `Cc1ccc(OCC(=O)OC2CN3CCC2CC3)cc1` (stereo not drawn), 1610 cells. The figure for `O=P1(Nc2ccc(Br)cn2)COc2ccccc2OC1` is 1040 cells. For `CN1CCCCC1COC(=O)C1(O)c2ccccc2CCc2ccccc21` (stereo not drawn), the cell count was 1170 cells.

On to `COc1ccccc1OP(C)(=O)Nc1c(C)cccc1C` (stereo not drawn), for which the cell count was determined as 1550 cells. For `O=P1(Nc2ncccn2)COc2ccccc2OC1` the value was 1040 cells; for `CCOC(=O)C(CC)C1=NC(C)(C)Cc2ccccc21.O=[N+]([O-])c1cc([N+](=O)[O-])c(O)c([N+](=O)[O-])c1` (stereo not drawn), 1420 cells.

Turning to `CN(C)C1(CNC(=O)c2ccc(S(C)(=O)=O)cc2)CCCCC1`, the cell count amounted to 1330 cells. The figure for `O=[N+]([O-])c1cc([N+](=O)[O-])c(Nc2nnnn2CCO)c([N+](=O)[O-])c1` is 991 cells. For `O=C(/C=C/c1ccccc1)OC1CN2CCC1CC2` (stereo not drawn) the value was 1300 cells; for `CC1CCC(C(C)C)C(OP(=O)(Nc2ccccn2)c2ccccc2)C1` (stereo not drawn), 1300 cells; for `Cc1nn(-c2ccccc2)c2c1P(=O)(N1CCOCC1)N(C)C(c1ccccc1)=N2` (stereo not drawn), 1220 cells. The figure for `COc1cc(C2NCCC3(OCCO3)C2(C)C)cc(OC)c1OC.O=[N+]([O-])c1cc([N+](=O)[O-])c(O)c([N+](=O)[O-])c1` (stereo not drawn) is 1320 cells; for `CN(C(=O)Cc1ccccc1)[C@@H]1CC[C@]2(CCCO2)C[C@H]1N1CCCC1` it is 956 cells. As for `CCOP1(=S)c2c(C)nn(CCC#N)c2N=C(c2ccc(F)cc2)N1C` (stereo not drawn), the cell count amounted to 1010 cells.

Molecule `CC1=NCCc2c1[nH]c1ccccc21.O=[N+]([O-])c1cc([N+](=O)[O-])c(O)c([N+](=O)[O-])c1` gave a cell count of 1330 cells.

For the molecule `O=[N+]([O-])c1ccc2c(c1)nnn2O`, the cell count was determined as 933 cells. For `O=C(O)COc1ccc([As](=O)(O)O)cc1[N+](=O)[O-]` the value was 1390 cells; for `Nc1ccccc1[As](=O)(O)c1ccccc1`, 1100 cells. `O=P(Nc1nccs1)(c1ccccc1)c1nc2ccccc2s1` (stereo not drawn) registered a cell count of 759 cells.

`O=C(O)c1cccc(Nc2c([N+](=O)[O-])cc([N+](=O)[O-])cc2[N+](=O)[O-])c1`: the cell count worked out at 987 cells. Molecule `CCOP1(=S)c2c(C)nn(CCC#N)c2N=C(c2ccccc2F)N1C` (stereo not drawn) returned a cell count of 1290 cells. In turn, `CS(=O)(=O)c1cc([N+](=O)[O-])c2no[n+]([O-])c2c1` displayed a cell count of 1400 cells. For `CCOP(=O)(Nc1cccc2ccccc12)OCC`, the cell count was found to be 1210 cells. For `Nc1cccc2c([As](=O)(O)O)cccc12` the value was 1340 cells; for `Cc1ccc(NCCc2c([N+](=O)[O-])cc([N+](=O)[O-])cc2[N+](=O)[O-])cc1`, 1390 cells; for `CP(=O)(Nc1cccc(Br)c1)Oc1ccccc1` (stereo not drawn), 996 cells.

Take `Cc1ccc(C)c(NP(C)(=O)Oc2ccccc2)c1` (stereo not drawn): the cell count is 1220 cells. Molecule `CCCOP(=S)(Nc1nc(N)cc(=O)[nH]1)OCCC` had a cell count of 903 cells. Take `Cc1cc(C)cc(OP(C)(=O)Nc2ccc(C)cc2C)c1` (stereo not drawn): the cell count was 900 cells. The figure for `Cc1cccc(OCC(=O)OC2CN3CCC2CC3)c1` (stereo not drawn) is 1710 cells; for `O=[As](O)(c1cccc(O)c1)c1cccc(O)c1` it is 1440 cells; for `CCOC(=O)c1ccc(NP(C)(=O)Oc2cc(C)cc(C)c2)cc1` (stereo not drawn) it is 1440 cells. For `O=C(OC1CN2CCC1CC2)c1ccc(Cl)cc1` (stereo not drawn) the value was 1320 cells. The figure for `COc1ccccc1OP(C)(=O)Nc1cccc(Br)c1` (stereo not drawn) is 872 cells; for `O=[As](O)(O)c1cccnc1` it is 1090 cells.

As to `COc1cc(C(=O)NCC2(N3CCOCC3)CCCCC2)cc(Cl)c1OC(C)C`, the cell count is 1660 cells. For `COc1ccc(N/C(=N/P(=O)(N2CCOCC2)N2CCOCC2)N2CCOCC2)cc1` the value was 1050 cells. `COc1cc(I)ccc1[As](=O)(O)O` had a cell count of 1060 cells.

In turn, `COc1ccc2nc(NP(=O)(c3ccccc3)c3ccccc3)sc2c1` showed a cell count of 1410 cells. For `Cc1c2c(nc3ccccc13)SC(C(Cl)Cl)C2` (stereo not drawn) the value was 1590 cells; for `CCN(CC)CCCOC(=O)C(O)(c1ccccc1)c1ccccc1`, 1290 cells. For `Cc1cc(=O)[nH]c(N[N+](=O)[O-])n1` the value was 1680 cells; for `O=C(OC1CN2CCC1CC2)C12CC3CC(CC(C3)C1)C2` (stereo not drawn), 929 cells.

`COc1ccc(OP(C)(=O)Nc2cccc(F)c2)cc1` (stereo not drawn): the cell count worked out at 924 cells.

As for `O=[N+]([O-])c1cc([N+](=O)[O-])c(-c2ccn[nH]2)s1`, the cell count worked out at 754 cells. The figure for `CC(C)NC(=O)NP(=O)(Oc1ccccc1)Oc1ccccc1` is 1280 cells. Consider `COc1ccccc1OP(C)(=O)Nc1cc(Cl)ccc1C` (stereo not drawn), for which the cell count is 1620 cells. For `Cc1cc(C)cc(OP(C)(N)=O)c1` (stereo not drawn) the value was 1120 cells; for `ClCCSc1nnc(-c2cccnc2)o1`, 1190 cells. For `CCOC(=O)c1ccc(NP(C)(=O)Oc2ccccc2)cc1` (stereo not drawn) the value was 1460 cells; for `CC(C)c1ccc(OP(=O)(Nc2ccccn2)Oc2ccccc2F)cc1` (stereo not drawn), 1130 cells. For `Cc1ccc(NP(C)(=O)Oc2ccccc2)c(C)c1` (stereo not drawn), the cell count was determined as 959 cells. Molecule `COc1ccccc1OP(C)(=O)Nc1ccc(C)cc1` (stereo not drawn) displayed a cell count of 1270 cells. Turning to `Cc1cccc(C)c1OP(C)(N)=O` (stereo not drawn), the cell count worked out at 1090 cells. `Cc1ccc(OP(=O)(Nc2ccc([N+](=O)[O-])cn2)Oc2ccc(C)cc2)cc1` displayed a cell count of 1420 cells. For `CC(C)(C)c1ccc(OP(C)(=O)Nc2ccc(SC(F)(F)F)cc2)cc1` (stereo not drawn) the value was 1200 cells; for `O=[N+]([O-])c1ccc2c(c1)C=Nc1ccccc1O2`, 1130 cells.

`Cc1ccc2nc3c(c(C)c2c1)CC(C(Cl)Cl)S3` (stereo not drawn) had a cell count of 1430 cells. The figure for `C[As](=O)(O)c1cccc(C(=O)O)c1` is 1380 cells. The figure for `O=[As](O)(c1ccc(O)cc1)c1ccccc1O` is 1050 cells. In turn, `COc1ccccc1OP(C)(=O)Nc1ccccc1` (stereo not drawn) yielded a cell count of 1320 cells.

The molecule `Cc1cc(SC(NC=O)C(Cl)(Cl)Cl)ncn1` (stereo not drawn) displayed a cell count of 1270 cells. The figure for `O=P(Nc1ccccn1)(c1cccc2ccccc12)c1cccc2ccccc12` is 1480 cells; for `O=[N+]([O-])c1ccc(Nc2ccc(Oc3ccc([N+](=O)[O-])cc3[N+](=O)[O-])cc2)c([N+](=O)[O-])c1` it is 1230 cells; for `CP(=O)(Nc1ccccc1Br)Oc1ccccc1` (stereo not drawn) it is 1320 cells. For `CP(=S)(Nn1cnnc1)Oc1ccccc1` (stereo not drawn) the value was 1210 cells. `CCOC(=O)Nc1cccc([As](=O)(O)O)c1`: the cell count is 1440 cells.

Molecule `Cc1cc(SC(NC(=O)c2ccccc2)C(Cl)(Cl)Cl)nc(C(C)C)n1` (stereo not drawn) showed a cell count of 1330 cells. For `CCOC(=O)Nc1ccc([As](=O)(O)O)c(O)c1` the value was 1110 cells. Molecule `CCC(C)N(CC(C)C)C(=S)SC(NC(C)=O)C(Cl)(Cl)Cl` (stereo not drawn) registered a cell count of 1210 cells. Molecule `CP(=O)(Nc1ccccn1)Oc1ccc(Cl)cc1` (stereo not drawn) yielded a cell count of 981 cells.

Molecule `CCOP(C)(=S)SCC(=O)NC(C)C(=O)O` (stereo not drawn) displayed a cell count of 1290 cells. The figure for `CCOC(=O)c1ccc(NP(C)(=O)Oc2ccc(OC)cc2)cc1` (stereo not drawn) is 1410 cells; for `CCOC(=O)c1ccc(NC(=O)C(C)(CCl)SC)cc1` (stereo not drawn) it is 1160 cells; for `Cc1cc(C)cc(OP(C)(=O)Nc2ccc(SC(F)(F)F)cc2)c1` (stereo not drawn) it is 1520 cells. The figure for `CP(=O)(NC(=O)Nc1ccccc1)Oc1ccccc1` (stereo not drawn) is 1040 cells.

Turning to `O=C(COc1ccccc1)OC1CN2CCC1CC2` (stereo not drawn), the cell count is 963 cells. The molecule `CCc1ccc(OP(C)(=O)N2CCN(c3ccc([N+](=O)[O-])cc3)CC2)cc1` (stereo not drawn) displayed a cell count of 1060 cells. Take `CP(=O)(Oc1ccccc1)OC(c1ccccc1)C(F)(F)F` (stereo not drawn): the cell count came to 1430 cells. For `COP1(=S)c2c(C)nn(CCC#N)c2N=C(c2ccc(F)cc2)N1C` (stereo not drawn) the value was 1420 cells. Regarding `CP(=O)(Nc1ccc(SC(F)(F)F)cc1)Oc1ccc(Cl)cc1` (stereo not drawn), the cell count is 1010 cells. The molecule `Cc1cccc(C)c1OP(C)(=O)Nc1ccc(SC(F)(F)F)cc1` (stereo not drawn) had a cell count of 1360 cells.

With `CC1CCN(C(=O)Oc2c(Cl)cc(Cl)c3cccnc23)CC1`, the cell count is 1390 cells. For `CC(C)=N/N=C(\N)N[N+](=O)[O-]` the value was 1460 cells; for `CN(C)C(=O)c1c([N+](=O)[O-])cc([N+](=O)[O-])cc1[N+](=O)[O-]`, 655 cells; for `CP(=O)(Nc1ccc(Cl)cc1)Oc1ccc(F)cc1` (stereo not drawn), 1580 cells. Molecule `CCN(/C(=N/P(=O)(N1CCOCC1)N1CCOCC1)N1CCOCC1)c1ccc(OC)cc1` yielded a cell count of 1230 cells. As for `C[N+]1=C2C=CC=CC=C2SC12C([N+](=O)[O-])=CC([N+](=O)[O-])=C[C-]2[N+](=O)[O-]` (stereo not drawn), the cell count was found to be 958 cells.

`COc1ccccc1OP(C)(=O)Nc1ccccc1Br` (stereo not drawn) showed a cell count of 1140 cells. `Nc1ccc([As](=O)(O)c2ccc(N)cc2)cc1` returned a cell count of 1380 cells. Regarding `CCc1ccc(OP(C)(=O)Nc2cccnc2)cc1` (stereo not drawn), the cell count is 1250 cells. In the case of `CCc1nc2c(n1)c1c(non1O)c1c2no[n+]1[O-]`, the cell count worked out at 1350 cells. For `CP(=O)(Oc1ccccc1)N1CCOC1=O` (stereo not drawn) the value was 1040 cells; for `Cc1ccc(NP(=O)(Oc2ccccc2)Oc2ccccc2)nc1`, 1420 cells; for `O=C(OCCCN1CCCC1)C(O)(c1ccccc1)C1CCCCC1` (stereo not drawn), 1070 cells. `COc1ccccc1OP(C)(=O)Nc1c(C)n(C)n(-c2ccccc2)c1=O` (stereo not drawn) came in with a cell count of 1260 cells.

The molecule `COc1ccc(OP(C)(=O)Nc2ccc(Br)cc2)cc1` (stereo not drawn) displayed a cell count of 1370 cells. The molecule `COc1ccc(C2=NCC(CBr)S2)cc1` (stereo not drawn) came in with a cell count of 1130 cells.

`CCN(CC)CC(O)COC(=O)C(O)(c1ccccc1)C1CCCCC1` (stereo not drawn) came in with a cell count of 1190 cells. For `O=C(O)CNc1ccc([As](=O)(O)O)cc1` the value was 1340 cells; for `O=[N+]([O-])c1cccc(NC2=NCC(CBr)S2)c1` (stereo not drawn), 1070 cells; for `O=[N+]([O-])c1ncn(CCn2ncnc2[N+](=O)[O-])n1`, 1140 cells.

`CC(C)(C)C(=O)NC(Sc1ccncn1)C(Cl)(Cl)Cl` (stereo not drawn) yielded a cell count of 1010 cells. Molecule `CP(=O)(OC12CC3CC(CC(C3)C1)C2)OC12CC3CC(CC(C3)C1)C2` had a cell count of 951 cells.

The molecule `O=C(Nc1cc([As](=O)(O)O)ccc1O)c1ccccc1` showed a cell count of 1380 cells. Molecule `CP(=O)(Nc1ccc(Cl)cc1Cl)Oc1ccccc1` (stereo not drawn) had a cell count of 1260 cells.
